This is one part of the list. Shown are side measurements of this screen, not its main read-out; they come without a call.
Test: wild-type yeast growth inhibition sparing TORC1 bypass cells, mechanism study for yeast TOR pathway GFP screen, BY4741 wild type, TORC1 bypass strain (AID 504456)
Settings: S. cerevisiae BY4741 spot growth rating, 48-72 h, at 30 µM

Structure (SMILES) | growth rating (0-3)
C[C@H]1C[C@@H](C)C(=O)[C@@H]([C@H](O)CC2CC(=O)NC(=O)C2)C1 | 0
C[C@@H]1C[C@@H]([C@H](O)CC2CC(=O)NC(=O)C2)C(=O)[C@@H](C)C1 | 0

Source: PubChem BioAssay AID504456 (NMMLSC, 2011)
